According to US20200277349A1 (FRAUNHOFER GESELLSCHAFT ZUR F RDERUNG DER ANGEWANDTEN …, published 2020):
No constants are given. Whether binding was seen depends on the method and setting. Some results given as binding are weak or reduced against the parent protein; the word gives no strength. For some assays here: Where a sequence is shown, tags or fusion partners need not be part of it.

How the values were obtained:
[1] = molecular target: T1, human IL-1RAPL1 extracellular domain-Fc chimera (human) (UniProt Q9NZN1); assay: plate binding assay: IL-1RAPL1-Fc coated, IL-38 titrated, detected with biotinylated monoclonal IL-38 antibody
T1 sequence (looked up): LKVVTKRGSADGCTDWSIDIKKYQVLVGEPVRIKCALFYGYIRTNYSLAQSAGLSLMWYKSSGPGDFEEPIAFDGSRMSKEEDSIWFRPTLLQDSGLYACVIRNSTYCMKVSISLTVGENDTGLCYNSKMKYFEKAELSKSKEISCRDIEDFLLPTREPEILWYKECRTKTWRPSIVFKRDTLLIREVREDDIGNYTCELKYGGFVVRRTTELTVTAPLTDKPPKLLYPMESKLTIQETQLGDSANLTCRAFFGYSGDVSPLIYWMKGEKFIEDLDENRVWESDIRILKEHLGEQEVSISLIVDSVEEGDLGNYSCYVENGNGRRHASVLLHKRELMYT

[2] = molecular target: T2, human IL-1R6 extracellular domain-Fc chimera (human) (UniProt Q9HB29); assay: plate binding assay on immobilized extracellular domain-Fc chimera (FIG. 3E)
T2 sequence (looked up): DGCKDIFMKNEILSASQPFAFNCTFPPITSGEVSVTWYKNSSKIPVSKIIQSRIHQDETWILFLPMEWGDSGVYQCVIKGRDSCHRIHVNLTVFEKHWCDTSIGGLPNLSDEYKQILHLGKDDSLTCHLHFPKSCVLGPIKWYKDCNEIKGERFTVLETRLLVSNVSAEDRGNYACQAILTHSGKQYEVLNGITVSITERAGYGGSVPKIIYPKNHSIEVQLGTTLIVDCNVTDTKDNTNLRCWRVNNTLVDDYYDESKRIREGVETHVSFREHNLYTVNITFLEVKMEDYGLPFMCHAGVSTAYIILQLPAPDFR

[3] = molecular target: T1, human IL-1RAPL1 extracellular domain-Fc chimera (human); assay: as above
[4] = molecular target: T3, IL-1RAPL1 on human macrophages (human) (UniProt Q9NZN1); assay: flow cytometry competition on human macrophages; competitor anti-IL-1RAPL1 staining antibody
T3 sequence (looked up): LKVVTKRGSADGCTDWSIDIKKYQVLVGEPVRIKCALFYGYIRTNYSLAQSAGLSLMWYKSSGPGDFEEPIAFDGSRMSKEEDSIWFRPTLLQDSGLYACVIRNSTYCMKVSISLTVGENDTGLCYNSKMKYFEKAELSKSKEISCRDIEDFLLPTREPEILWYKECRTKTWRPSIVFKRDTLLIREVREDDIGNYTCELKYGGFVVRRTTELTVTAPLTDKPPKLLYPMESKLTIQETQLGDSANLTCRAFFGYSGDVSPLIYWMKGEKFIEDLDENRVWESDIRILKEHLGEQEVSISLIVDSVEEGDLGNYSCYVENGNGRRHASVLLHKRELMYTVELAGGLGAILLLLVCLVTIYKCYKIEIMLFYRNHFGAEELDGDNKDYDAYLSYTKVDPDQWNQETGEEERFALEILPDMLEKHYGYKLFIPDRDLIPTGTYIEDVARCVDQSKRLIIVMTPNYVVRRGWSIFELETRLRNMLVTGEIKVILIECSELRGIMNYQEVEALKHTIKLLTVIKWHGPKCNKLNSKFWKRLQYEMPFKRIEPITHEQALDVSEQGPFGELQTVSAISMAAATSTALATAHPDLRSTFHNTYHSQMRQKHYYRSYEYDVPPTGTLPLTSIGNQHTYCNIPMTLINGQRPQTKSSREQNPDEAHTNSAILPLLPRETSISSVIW

[5] = molecular target: T2, human IL-1R6 extracellular domain-Fc chimera (human); assay: plate binding assay: IL-1R6-Fc coated, IL-38 titrated, detected with biotinylated monoclonal IL-38 antibody

Measured: binding

B1: recombinant human full length IL-38 (IL-38aa1-152) (ligand)
chain: MCSLPMARYYIIKYADQKALYTRDGQLLVGDPVADNCCAEKICILPNRGLARTKVPIFLGIQGGSRCLACVETEEGPSLQLEDVNIEELYKGGEEATRFTFFQSSSGSAFRLEAAAWPGWFLCGPAEPQQPVQLTKESEPSARTKFYFEQSW
binds: [1] | [2] | [3] | [4] | [5]
